Laboratory results reported in PMC11442487.
No constants are given. Whether binding was seen depends on the method and setting. In cells and extracts the contact can be indirect. Some binding calls cover weakened binding; strength is not graded here. For some of these results: Where a sequence is shown, tags or fusion partners need not be part of it.

Assays:
[1] = molecular target: T1, Trem2, transfected in HEK-293T cells (UniProt Q99NH8); assay: co-IP; lysates of transfected HEK-293T in 1x IP lysis buffer; anti-IL-4 or anti-Trem2 antibody at 4°C overnight, Protein A/G Plus-Agarose; western blot
T1 sequence: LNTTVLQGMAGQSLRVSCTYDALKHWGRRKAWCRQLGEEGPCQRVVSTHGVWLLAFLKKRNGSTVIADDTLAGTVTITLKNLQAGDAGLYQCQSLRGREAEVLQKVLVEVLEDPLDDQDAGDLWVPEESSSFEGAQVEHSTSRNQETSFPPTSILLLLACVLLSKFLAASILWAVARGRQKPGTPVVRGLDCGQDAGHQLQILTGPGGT

[2] = molecular target: T2, endogenous Trem2 of RAW 264.7 cells (mouse (endogenous in RAW 264.7)) (UniProt Q99NH8); assay: co-IP; endogenous proteins, lysates of RAW 264.7 and RAW 264.7 IL-4R-KO cells; anti-IL-4 or anti-Trem2 antibody at 4°C overnight, Protein A/G Plus-Agarose; western blot
T2 sequence: T1 sequence

[3] = molecular target: T3, GST-IL-4 fusion protein (mouse) (UniProt P07750); assay: pull-down; GST-IL-4 immobilized on GST beads, incubated with His-tagged full-length Trem2 or fragments expressed in HEK-293T cells; western blot
T3 sequence: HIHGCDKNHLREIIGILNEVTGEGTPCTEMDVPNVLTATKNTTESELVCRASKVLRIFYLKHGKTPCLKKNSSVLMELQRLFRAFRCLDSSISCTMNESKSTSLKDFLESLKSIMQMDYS

B1: IL-4, transfected in HEK-293T cells (ligand, UniProt P07750 21-140)
chain: T3 sequence
binding [1]: binds

B2: endogenous IL-4 of RAW 264.7 cells (ligand, UniProt P07750 21-140)
chain: T3 sequence
binding [2]: binds

B3: His-tagged N-terminal aa1-aa132 of Trem2 (domain or fragment, UniProt Q99NH8 19-132)
chain: LNTTVLQGMAGQSLRVSCTYDALKHWGRRKAWCRQLGEEGPCQRVVSTHGVWLLAFLKKRNGSTVIADDTLAGTVTITLKNLQAGDAGLYQCQSLRGREAEVLQKVLVEVLEDP
binding [3]: binds

B4: His-tagged NT aa133-227 of Trem2 (domain or fragment, UniProt Q99NH8 133-227)
chain: LDDQDAGDLWVPEESSSFEGAQVEHSTSRNQETSFPPTSILLLLACVLLSKFLAASILWAVARGRQKPGTPVVRGLDCGQDAGHQLQILTGPGGT
binding [3]: no binding
